Source: patent publication US4451473A, “3,7-Diazabicyclo [3.3.1] nonanes having anti-arrhythmic activity” (Richter Gedeon Vegyeszeti Gyar Rt., priority 1981, dated 1984)
Structures can show the parent of a compound that is named as a salt.

System: disorders of cardiac rhythm provoked by aconitine in rats
Assay type: in vivo
Settings: therapeutical index of the new compound : therapeutical index of Lidocaine
Procedure: When examining the antiarrhythmic effects, rats were pre-treated intravenously with 1 mg/kg of aconitine to provoke disorders of cardiac rhythm [Med. Exp. (Basel) 10, 93 (1964)], thereafter the test compound was administered intravenously, and the dose required to restore the rhythm in 50% (ED50 mg/kg) was determined.

Row | SMILES | Ratio of indices
1 | CN1CC2CN(C)CC(C1)C2Oc1ccc(Cl)cc1.O=C(O)/C=C/C(=O)O (stereo not shown) [3,7-Dimethyl-9-(4'-chlorophenoxy)-3,7-diazabicyclo[3.3.1]nonane fumarate] | 21
2 | CN1CC2CN(C)CC(C1)C2OC(=O)c1ccc2ccccc2c1 (stereo not shown) [3,7-dimethyl-9-(2'-naphthoyloxy)-3,7-diazabicyclo[3.3.1]nonane] | 58
3 | CCN1CC2CN(CC)CC(C1)C2OC(=O)c1ccc(Cl)cc1.Cl.Cl.O (stereo not shown) [3,7-diethyl-9-(4'-chloro-benzoyloxy)-3,7-diazabicyclo[3.3.1]nonane dihydrochloride monohydrate] | 10
4 | CCN1CC2CN(C)CC(C1)C2OC(=O)c1ccc(Cl)cc1Cl (stereo not drawn) [3-Methyl-7-ethyl-9α-(2',4'-dichloro-benzoyloxy)-3,7-diazabicyclo[3.3.1]nonane dihydrochloride] | 6
5 | CN1CC2CN(C)CC(C1)C2OC(=O)C1c2ccccc2Oc2ccccc21 (stereo not shown) [3,7-dimethyl-9-(xanthene-9'-carbonyloxy)-3,7-diazabicyclo[3.3.1]nonane] | 16
6 | CCN1CC2CN(C)CC(C1)C2Oc1ccc(Cl)cc1 (stereo not drawn) [3-Methyl-7-ethyl-9α-(4'-chlorophenoxy)-3,7-diazabicyclo[3.3.1]nonanedihydrochloride] | 12
7 | CCN1CC2CN(C)CC(C1)C2Oc1ccccc1Cl (stereo not drawn) [3-Methyl-7-ethyl-9α-(2'-chlorophenoxy)-3,7-diazabicyclo[3.3.1]nonanedihydrochloride] | 8
8 | CCOc1ccc(C(=O)OC2C3CN(C)CC2CN(C)C3)cc1OC (stereo not shown) [3,7-Dimethyl-9-(3'-methoxy-4'-ethoxy-benzoyloxy)-3,7-diazabicyclo[3.3.1]nonane] | 5
9 | CN1CC2CN(C)CC(C1)C2Oc1ccccc1.O=C(O)/C=C/C(=O)O (stereo not shown) [3,7-dimethyl-9-phenoxy-3,7-diazabicyclo[3.3.1]nonane fumarate] | 12
10 | CCN1CC2CN(C)CC(C1)C2OC(=O)c1ccc(-c2ccccc2)cc1 (stereo not drawn) [3-Methyl-7-ethyl-9α-(4'-phenyl-benzoyloxy)-3,7-diazabicyclo[3.3.1]nonane] | 6
11 | CCCCN1CC2CN(CCCC)CC(C1)C2OC(=O)c1ccc(Cl)cc1 (stereo not shown) [3,7-di-n-butyl-9-(4'-chlorobenzoyloxy)-3,7-diazabicyclo[3.3.1]nonane] | 7
12 | CN1CC2CN(C)CC(C1)C2OC(c1ccccc1)c1ccccc1.O=C(O)/C=C/C(=O)O (stereo not shown) [3,7-Dimethyl-9-benzhydryloxy-3,7-diazabicyclo[3.3.1]nonane fumarate] | 6
13 | CN1CC2CN(C)CC(C1)C2OC(=O)c1ccccc1 (stereo not shown) [3,7-Dimethyl-9-benzoyloxy-3,7-diazabicyclo[3.3.1]nonane] | 39
